Measurements taken from the supplement of paper PMC10849652.
Some of the results follow. Residues, ends and D or L forms follow the SMILES beside them. *: point of attachment. Cbz = O=C(OCc1ccccc1)*

Sequences of proteins named here, by UniProt entry; tags and fusion partners are left off. A change or cut given only in a name is not applied to a line headed by its entry.
UniProt Q9GZT4: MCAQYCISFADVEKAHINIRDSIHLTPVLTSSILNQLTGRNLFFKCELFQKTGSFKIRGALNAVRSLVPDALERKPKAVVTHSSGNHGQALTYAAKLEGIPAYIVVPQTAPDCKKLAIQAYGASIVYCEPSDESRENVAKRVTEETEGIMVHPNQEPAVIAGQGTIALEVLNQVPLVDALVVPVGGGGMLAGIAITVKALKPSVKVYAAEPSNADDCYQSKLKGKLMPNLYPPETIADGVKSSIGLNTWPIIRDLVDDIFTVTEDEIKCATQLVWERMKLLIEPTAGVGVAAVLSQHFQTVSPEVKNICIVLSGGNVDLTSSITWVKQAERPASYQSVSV
UniProt Q9NSC7: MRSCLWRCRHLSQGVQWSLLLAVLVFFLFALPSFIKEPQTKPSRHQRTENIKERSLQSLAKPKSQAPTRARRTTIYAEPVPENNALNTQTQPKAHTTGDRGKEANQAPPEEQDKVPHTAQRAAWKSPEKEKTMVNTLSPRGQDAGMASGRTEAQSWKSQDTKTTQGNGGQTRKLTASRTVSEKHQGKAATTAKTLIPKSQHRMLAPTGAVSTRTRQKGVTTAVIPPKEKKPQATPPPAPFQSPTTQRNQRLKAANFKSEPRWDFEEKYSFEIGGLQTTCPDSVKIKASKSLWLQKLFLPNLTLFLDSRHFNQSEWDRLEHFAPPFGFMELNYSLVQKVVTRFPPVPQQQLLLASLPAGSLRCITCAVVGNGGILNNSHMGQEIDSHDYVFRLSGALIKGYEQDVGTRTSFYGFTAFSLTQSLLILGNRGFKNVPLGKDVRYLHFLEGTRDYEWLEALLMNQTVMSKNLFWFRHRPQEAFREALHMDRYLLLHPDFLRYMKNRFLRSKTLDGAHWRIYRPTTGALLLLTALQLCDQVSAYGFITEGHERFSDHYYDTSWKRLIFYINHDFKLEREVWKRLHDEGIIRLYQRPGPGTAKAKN
UniProt Q8IYB3: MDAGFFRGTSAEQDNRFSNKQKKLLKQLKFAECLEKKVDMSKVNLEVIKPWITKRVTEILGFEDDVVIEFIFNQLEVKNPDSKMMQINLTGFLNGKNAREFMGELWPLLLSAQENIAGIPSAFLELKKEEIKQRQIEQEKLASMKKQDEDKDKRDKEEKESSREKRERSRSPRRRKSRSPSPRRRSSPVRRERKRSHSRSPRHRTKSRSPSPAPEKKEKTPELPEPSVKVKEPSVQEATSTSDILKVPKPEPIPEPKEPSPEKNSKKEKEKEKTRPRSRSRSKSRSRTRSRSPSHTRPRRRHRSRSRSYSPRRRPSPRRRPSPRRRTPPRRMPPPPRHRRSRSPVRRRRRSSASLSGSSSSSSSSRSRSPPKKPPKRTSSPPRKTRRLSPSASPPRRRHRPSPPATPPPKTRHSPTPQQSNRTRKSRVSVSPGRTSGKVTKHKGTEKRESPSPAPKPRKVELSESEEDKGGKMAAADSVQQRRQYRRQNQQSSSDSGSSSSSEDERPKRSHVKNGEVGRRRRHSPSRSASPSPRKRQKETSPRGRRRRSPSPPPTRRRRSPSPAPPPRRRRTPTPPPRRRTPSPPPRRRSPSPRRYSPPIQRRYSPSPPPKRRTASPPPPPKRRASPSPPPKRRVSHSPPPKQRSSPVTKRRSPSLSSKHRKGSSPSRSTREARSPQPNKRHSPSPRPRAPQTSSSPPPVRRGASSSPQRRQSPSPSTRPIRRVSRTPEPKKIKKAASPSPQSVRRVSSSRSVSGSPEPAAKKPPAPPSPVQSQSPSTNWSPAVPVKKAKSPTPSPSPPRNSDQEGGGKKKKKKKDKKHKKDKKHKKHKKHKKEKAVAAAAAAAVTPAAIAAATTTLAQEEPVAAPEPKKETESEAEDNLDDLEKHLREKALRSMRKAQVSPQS
UniProt Q9UQ90: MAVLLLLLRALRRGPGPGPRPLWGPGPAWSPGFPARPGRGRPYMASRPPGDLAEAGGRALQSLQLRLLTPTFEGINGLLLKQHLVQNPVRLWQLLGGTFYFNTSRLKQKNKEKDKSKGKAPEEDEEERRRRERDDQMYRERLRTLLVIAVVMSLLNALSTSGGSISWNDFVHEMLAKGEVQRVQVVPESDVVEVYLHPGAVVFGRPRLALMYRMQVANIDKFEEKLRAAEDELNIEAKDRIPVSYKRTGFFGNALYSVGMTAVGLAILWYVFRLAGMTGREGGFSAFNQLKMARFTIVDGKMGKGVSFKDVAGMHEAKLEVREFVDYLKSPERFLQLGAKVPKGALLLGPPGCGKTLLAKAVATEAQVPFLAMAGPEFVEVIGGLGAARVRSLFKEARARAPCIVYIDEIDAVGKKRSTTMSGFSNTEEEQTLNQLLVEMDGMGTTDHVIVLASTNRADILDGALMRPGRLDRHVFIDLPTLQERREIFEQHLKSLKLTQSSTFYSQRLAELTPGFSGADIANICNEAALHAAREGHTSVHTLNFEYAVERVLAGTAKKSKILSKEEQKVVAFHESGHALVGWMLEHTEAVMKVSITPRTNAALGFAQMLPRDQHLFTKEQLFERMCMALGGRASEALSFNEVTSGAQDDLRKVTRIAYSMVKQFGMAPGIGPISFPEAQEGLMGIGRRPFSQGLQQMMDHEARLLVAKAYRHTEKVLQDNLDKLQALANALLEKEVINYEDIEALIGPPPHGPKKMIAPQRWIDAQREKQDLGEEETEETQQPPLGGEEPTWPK
UniProt Q04837: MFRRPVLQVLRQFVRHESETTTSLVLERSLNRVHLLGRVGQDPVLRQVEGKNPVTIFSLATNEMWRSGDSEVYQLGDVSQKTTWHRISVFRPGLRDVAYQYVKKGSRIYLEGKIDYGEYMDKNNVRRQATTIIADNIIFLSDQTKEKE
UniProt Q9NYA1, whole entry, looked up: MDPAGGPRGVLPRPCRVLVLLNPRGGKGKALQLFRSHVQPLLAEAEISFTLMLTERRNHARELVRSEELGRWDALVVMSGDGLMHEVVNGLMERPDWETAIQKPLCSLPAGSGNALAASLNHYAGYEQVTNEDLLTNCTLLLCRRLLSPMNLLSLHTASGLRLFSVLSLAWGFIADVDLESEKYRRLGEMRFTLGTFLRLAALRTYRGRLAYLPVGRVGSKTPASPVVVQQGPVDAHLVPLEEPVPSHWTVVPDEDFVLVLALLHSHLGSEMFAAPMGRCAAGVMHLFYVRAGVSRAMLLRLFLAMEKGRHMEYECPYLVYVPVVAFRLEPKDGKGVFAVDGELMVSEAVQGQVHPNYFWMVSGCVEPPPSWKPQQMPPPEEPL
UniProt Q9BXP5: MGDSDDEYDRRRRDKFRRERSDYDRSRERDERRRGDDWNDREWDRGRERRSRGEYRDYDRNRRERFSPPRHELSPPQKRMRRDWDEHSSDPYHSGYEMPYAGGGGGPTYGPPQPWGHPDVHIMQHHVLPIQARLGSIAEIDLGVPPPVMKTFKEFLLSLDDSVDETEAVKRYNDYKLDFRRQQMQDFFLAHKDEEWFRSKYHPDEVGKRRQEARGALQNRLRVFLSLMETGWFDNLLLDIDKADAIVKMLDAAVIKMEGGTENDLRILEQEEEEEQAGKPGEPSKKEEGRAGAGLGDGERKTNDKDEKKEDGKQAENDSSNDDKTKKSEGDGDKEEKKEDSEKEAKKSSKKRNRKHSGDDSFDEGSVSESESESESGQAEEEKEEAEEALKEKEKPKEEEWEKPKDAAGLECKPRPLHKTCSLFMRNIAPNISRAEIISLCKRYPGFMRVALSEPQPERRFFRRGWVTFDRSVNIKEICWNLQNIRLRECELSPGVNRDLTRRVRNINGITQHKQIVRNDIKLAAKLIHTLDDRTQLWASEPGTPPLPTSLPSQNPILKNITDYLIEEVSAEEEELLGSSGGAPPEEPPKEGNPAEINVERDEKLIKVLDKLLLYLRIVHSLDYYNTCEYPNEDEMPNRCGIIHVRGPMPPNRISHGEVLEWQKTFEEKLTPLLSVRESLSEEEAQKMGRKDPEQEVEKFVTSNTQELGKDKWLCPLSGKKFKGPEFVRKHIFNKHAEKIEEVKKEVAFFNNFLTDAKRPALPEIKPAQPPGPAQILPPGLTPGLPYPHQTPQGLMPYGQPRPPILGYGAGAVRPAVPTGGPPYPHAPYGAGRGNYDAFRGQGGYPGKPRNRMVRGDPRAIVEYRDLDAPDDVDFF
UniProt Q8NB90: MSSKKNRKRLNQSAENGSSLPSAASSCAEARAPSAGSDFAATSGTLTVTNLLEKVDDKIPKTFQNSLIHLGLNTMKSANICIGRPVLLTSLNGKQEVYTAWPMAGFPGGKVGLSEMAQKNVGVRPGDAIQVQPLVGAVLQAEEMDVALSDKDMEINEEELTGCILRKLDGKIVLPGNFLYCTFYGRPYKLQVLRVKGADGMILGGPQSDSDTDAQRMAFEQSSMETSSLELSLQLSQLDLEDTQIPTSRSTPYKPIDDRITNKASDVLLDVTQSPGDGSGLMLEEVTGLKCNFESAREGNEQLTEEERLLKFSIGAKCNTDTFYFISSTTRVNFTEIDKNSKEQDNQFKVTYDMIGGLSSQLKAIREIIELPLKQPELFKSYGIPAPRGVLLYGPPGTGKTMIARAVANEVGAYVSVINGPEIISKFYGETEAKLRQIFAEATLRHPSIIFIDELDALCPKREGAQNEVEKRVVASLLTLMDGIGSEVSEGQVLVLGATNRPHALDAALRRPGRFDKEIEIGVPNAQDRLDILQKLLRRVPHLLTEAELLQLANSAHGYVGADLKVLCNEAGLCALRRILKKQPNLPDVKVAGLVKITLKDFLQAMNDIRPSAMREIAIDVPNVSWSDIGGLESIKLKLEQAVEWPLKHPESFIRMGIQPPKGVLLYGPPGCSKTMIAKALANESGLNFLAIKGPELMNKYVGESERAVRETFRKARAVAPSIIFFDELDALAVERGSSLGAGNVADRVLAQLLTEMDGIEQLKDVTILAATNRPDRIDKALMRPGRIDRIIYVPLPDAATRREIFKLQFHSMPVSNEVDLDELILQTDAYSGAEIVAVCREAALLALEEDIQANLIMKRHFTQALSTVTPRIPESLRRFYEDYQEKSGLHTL
UniProt Q9HBM1: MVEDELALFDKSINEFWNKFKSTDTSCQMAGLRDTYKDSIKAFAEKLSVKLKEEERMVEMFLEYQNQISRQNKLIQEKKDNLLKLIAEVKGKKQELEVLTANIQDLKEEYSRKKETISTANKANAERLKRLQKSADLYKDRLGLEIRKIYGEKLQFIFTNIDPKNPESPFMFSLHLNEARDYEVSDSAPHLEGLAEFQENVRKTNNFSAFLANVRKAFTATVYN
UniProt O43805: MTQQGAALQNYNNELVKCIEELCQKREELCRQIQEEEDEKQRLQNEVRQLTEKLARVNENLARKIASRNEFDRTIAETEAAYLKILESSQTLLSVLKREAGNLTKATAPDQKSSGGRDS
UniProt Q9BVQ7: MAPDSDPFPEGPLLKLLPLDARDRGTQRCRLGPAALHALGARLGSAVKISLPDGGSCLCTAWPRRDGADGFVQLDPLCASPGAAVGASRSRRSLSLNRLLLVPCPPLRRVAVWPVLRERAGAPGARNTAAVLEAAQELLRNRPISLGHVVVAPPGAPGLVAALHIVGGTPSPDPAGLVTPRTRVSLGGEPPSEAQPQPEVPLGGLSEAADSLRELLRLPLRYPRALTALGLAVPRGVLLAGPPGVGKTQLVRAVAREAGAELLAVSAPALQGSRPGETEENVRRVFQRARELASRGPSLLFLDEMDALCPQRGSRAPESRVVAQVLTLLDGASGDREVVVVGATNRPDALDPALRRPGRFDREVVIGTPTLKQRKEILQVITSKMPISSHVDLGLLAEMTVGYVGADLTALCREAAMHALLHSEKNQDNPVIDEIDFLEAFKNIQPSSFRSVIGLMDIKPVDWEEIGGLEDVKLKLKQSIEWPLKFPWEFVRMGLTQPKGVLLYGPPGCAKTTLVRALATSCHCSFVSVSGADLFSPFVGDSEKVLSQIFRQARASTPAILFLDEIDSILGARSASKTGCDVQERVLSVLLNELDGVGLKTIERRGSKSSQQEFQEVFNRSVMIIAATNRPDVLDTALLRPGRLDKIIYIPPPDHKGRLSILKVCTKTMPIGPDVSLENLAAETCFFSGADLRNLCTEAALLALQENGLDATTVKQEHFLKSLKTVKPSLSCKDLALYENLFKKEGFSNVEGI
UniProt Q92783: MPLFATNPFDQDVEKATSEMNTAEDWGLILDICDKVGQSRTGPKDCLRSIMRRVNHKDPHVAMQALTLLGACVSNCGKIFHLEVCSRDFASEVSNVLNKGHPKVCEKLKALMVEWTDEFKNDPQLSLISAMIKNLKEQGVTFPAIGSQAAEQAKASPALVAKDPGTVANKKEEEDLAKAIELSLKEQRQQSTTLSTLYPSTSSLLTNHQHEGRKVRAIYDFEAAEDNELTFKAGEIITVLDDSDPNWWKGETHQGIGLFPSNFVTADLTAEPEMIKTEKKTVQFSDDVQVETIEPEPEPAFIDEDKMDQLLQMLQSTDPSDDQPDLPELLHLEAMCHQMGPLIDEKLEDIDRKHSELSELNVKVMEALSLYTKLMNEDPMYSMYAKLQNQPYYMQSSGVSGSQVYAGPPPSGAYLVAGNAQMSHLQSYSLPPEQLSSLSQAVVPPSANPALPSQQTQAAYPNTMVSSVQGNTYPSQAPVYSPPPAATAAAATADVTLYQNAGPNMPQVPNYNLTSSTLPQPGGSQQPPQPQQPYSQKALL

Columns and labels:
Experiment in all cases: log2 fold change, soluble protein after heating vs DMSO (PISA); higher = thermal stabilisation; K562 cells, 10 uM, 30 min; active = over 0.2 and 3.5 SD of the protein, either way, in both replicates (recomputed)
erlotinib = compound: C#Cc1cccc(Nc2ncnc3cc(OCCOC)c(OCCOC)cc23)c1 [erlotinib]
Outline: (§1)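 K562 cells at 2×10^6 cells/mL were given 10 μM compound for 30 min. Aliquots then went through 3 min of heating across 48°C-58°C, were pooled, and were extracted in PBS with 0.5% NP-40 at 4°C, and the supernatant after 21,000xg for 90 min was quantified by TMTpro 16plex LC-MS/MS with channel sums equalised. Thermal stability relative to control samples, from duplicates, is given as log2 fold change.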

[1] = compound: C/C(=N\NC(=O)C1=CC(=CC=C1)S(=O)(=O)N2CCOCC2)/C3=C(C=CC(=C3)Cl)O
Outline: as §1

[2] = compound: C1=CC(=C(C=C1Cl)C2=NC3=NC=CN=C3C(=N2)NC4=CC=NC=C4)F
Outline: as §1

[3] = compound: C1=CC(=CC=C1C2=NC3=C(N2)C=C(C=C3)C(=O)N)OC4=CC=C(C=C4)Cl
Outline: as §1

[4] = compound: C1=CC2=C(C=CC(=C2)/C=C\3/C(=O)NC(=NCC4=CC=CS4)S3)N=C1
Outline: as §1

[5] = compound: C1=CC2=NC=CN=C2C=C1/C=C/3\C(=O)NC(=O)S3
Outline: as §1

[6] = compound: C1=CC=C(C=C1)C2=NC(=C(N2)C3=CC=NC=C3)C4=CC(=C(C=C4)Cl)O
Outline: as §1

[7] = compound: C1=CC=C2C(=C1)C3=NNC4=CC=CC(=C43)C2=O
Outline: as §1

[8] = compound: C1CCN(C1)C(=O)NC2=CC=CC(=C2)NC3=NC=C(C(=N3)NCCC4=CN=CN4)Br
Outline: as §1

[9] = compound: C1CN(CCC1(CC2=CC=C(C=C2)Cl)N)C3=NC=NC4=C3C=CN4
Outline: as §1

IRAK-1-4 Inhibitor I = compound: C1COCCN1CCN2C3=CC=CC=C3N=C2NC(=O)C4=CC(=CC=C4)[N+](=O)[O-] [IRAK-1-4 Inhibitor I]
Outline: as §1

ibrutinib = compound: C=CC(=O)N1CCC[C@@H](n2nc(-c3ccc(Oc4ccccc4)cc3)c3c(N)ncnc32)C1 [ibrutinib]
Outline: as §1

[10] = compound: CC(=O)c1cnc2ccc(-c3cc(Cl)c(O)c(Cl)c3)nc2c1N[C@H]1CC[C@H](CN(C)C)CC1
Outline: as §1

ralimetinib = compound: CC(C)(C)Cn1c(N)nc2ccc(-c3[nH]c(C(C)(C)C)nc3-c3ccc(F)cc3)nc21 [ralimetinib]
Outline: as §1

[11] = compound: CC(C)(O)CC(=O)NCCn1ccc2ncnc(Nc3ccc(Oc4cccc(C(F)(F)F)c4)c(Cl)c3)c21
Outline: as §1

[12] = compound: CC(C)C1=C2N=C(C=C(N2N=C1)NCC3=CC=CC=C3)NCCCCCCN
Outline: as §1

[13] = compound: CC(C)C[C@@H](C=O)NC(=O)[C@H](CC(C)C)NC(=O)[C@H](CC(C)C)NC(=O)OCc1ccccc1
Outline: as §1

pinometostat = compound: CC(C)N(C[C@H]1O[C@@H](n2cnc3c(N)ncnc32)[C@H](O)[C@@H]1O)[C@H]1C[C@@H](CCc2nc3cc(C(C)(C)C)ccc3[nH]2)C1 [pinometostat]
Outline: as §1

[14] = compound: CC1=C(C(CC(=O)N1)C2=CC=C(C=C2)C(F)(F)F)C(=O)NC3=C(C=C4C(=C3)C=NN4)F
Outline: as §1

[15] = compound: CC1=C(C2=C(C=C1)C(=O)C3=CC=CC=C3N2CCCN)C
Outline: as §1

Measured: log2 fold change

SRR (UniProt Q9GZT4)
inactive: erlotinib 0.005 | [1] -0.088 | [2] 0.074 | [3] 0.073 | [4] 0.086 | [5] 0.046 | [6] -0.078 | [7] 0.04 | [8] 0.025 | [9] -0.026 | IRAK-1-4 Inhibitor I 0.035 | ibrutinib -0.013 | [10] -0.04 | ralimetinib 0.007 | [11] -0.089 | [12] -0.014 | [13] -0.007 | pinometostat 0.011 | [14] 0.004 | [15] 0.138

ST6GALNAC1 (UniProt Q9NSC7)
inactive: erlotinib 0.026 | [1] -0.007 | [2] 0.005 | [3] 0.032 | [4] -0.045 | [5] -0.065 | [6] 0.037 | [7] -0.031 | [8] -0.061 | [9] 0.039 | IRAK-1-4 Inhibitor I -0.112 | ibrutinib 0.031 | [10] 0.039 | ralimetinib -0.076 | [11] 0.013 | [12] -0.044 | [13] 0.067 | pinometostat 0.077 | [14] 0.022 | [15] -0.057

SRRM1 (UniProt Q8IYB3)
inactive: erlotinib 0.019 | [1] 0.025 | [2] -0.202 | [3] 0.132 | [4] -0.113 | [5] -0.04 | [6] -0.115 | [7] -0.013 | [8] 0.069 | [9] -0.139 | IRAK-1-4 Inhibitor I -0.152 | ibrutinib 0.054 | [10] -0.297 | ralimetinib 0.107 | [11] 0.069 | [12] -0.121 | [13] 0.09 | pinometostat 0.151 | [14] 0.068 | [15] 0.066

SPG7 (UniProt Q9UQ90)
inactive: erlotinib 0.03 | [1] -0.02 | [2] -0.028 | [3] 0.002 | [4] 0.074 | [5] 0 | [6] 0.003 | [7] 0.016 | [8] 0.016 | [9] 0.03 | IRAK-1-4 Inhibitor I -0.002 | ibrutinib 0.015 | [10] -0.032 | ralimetinib -0.013 | [11] 0.002 | [12] -0.054 | [13] -0.005 | pinometostat -0.007 | [14] 0.075 | [15] 0.031

SSBP1 (UniProt Q04837)
inactive: erlotinib -0.009 | [1] -0.052 | [2] -0.035 | [3] -0.018 | [4] 0.003 | [5] 0.022 | [6] -0.099 | [7] 0.025 | [8] 0.016 | [9] -0.015 | IRAK-1-4 Inhibitor I 0 | ibrutinib -0.011 | [10] -0.011 | ralimetinib 0.074 | [11] 0.085 | [12] 0.121 | [13] 0.034 | pinometostat 0.041 | [14] 0.008 | [15] 0.075

SPHK1 isoform 2 (UniProt Q9NYA1)
inactive: erlotinib -0.028 | [1] 0.109 | [2] -0.039 | [3] -0.019 | [4] 0.051 | [5] 0.001 | [6] 0.074 | [7] -0.123 | [8] -0.059 | [9] 0.115 | IRAK-1-4 Inhibitor I 0.054 | ibrutinib -0.021 | [10] -0.204 | ralimetinib -0.072 | [11] -0.001 | [12] 0.09 | [13] 0.014 | pinometostat -0.046 | [14] 0.004 | [15] 0.02

SRRT (UniProt Q9BXP5)
inactive: erlotinib 0.252 | [1] 0.157 | [2] 0.12 | [3] -0.022 | [4] 0.137 | [5] -0.008 | [6] 0.091 | [7] 0.054 | [8] -0.081 | [9] -0.023 | IRAK-1-4 Inhibitor I -0.135 | ibrutinib -0.042 | [10] -0.195 | ralimetinib 0.017 | [11] -0.269 | [12] -0.375 | [13] -0.049 | pinometostat -0.011 | [14] 0 | [15] 0.148

SPATA5 (UniProt Q8NB90)
inactive: erlotinib -0.042 | [1] -0.019 | [2] -0.028 | [3] -0.005 | [4] 0.015 | [5] 0.014 | [6] -0.005 | [7] 0 | [8] 0.011 | [9] 0.04 | IRAK-1-4 Inhibitor I 0.011 | ibrutinib 0.027 | [10] 0.028 | ralimetinib 0.033 | [11] 0.008 | [12] 0.065 | [13] -0.012 | pinometostat -0.03 | [14] 0.014 | [15] 0.084

SPRYD4 (UniProt Q8WW59)
inactive: erlotinib -0.069 | [1] -0.005 | [2] 0.03 | [3] 0.008 | [4] 0.009 | [5] -0.002 | [6] -0.04 | [7] 0.049 | [8] 0.014 | [9] 0.024 | IRAK-1-4 Inhibitor I 0.028 | ibrutinib 0.024 | [10] 0.014 | ralimetinib -0.058 | [11] 0.028 | [12] -0.011 | [13] -0.035 | pinometostat -0.042 | [14] -0.059 | [15] 0.033

Random excerpt: two records from the list
SPRYD4 (UniProt Q8WW59)
inactive: erlotinib -0.069 | [1] -0.005 | [2] 0.03 | [3] 0.008 | [4] 0.009 | [5] -0.002 | [6] -0.04 | [7] 0.049 | [8] 0.014 | [9] 0.024 | IRAK-1-4 Inhibitor I 0.028 | ibrutinib 0.024 | [10] 0.014 | ralimetinib -0.058 | [11] 0.028 | [12] -0.011 | [13] -0.035 | pinometostat -0.042 | [14] -0.059 | [15] 0.033

SRR (UniProt Q9GZT4)
inactive: erlotinib 0.005 | [1] -0.088 | [2] 0.074 | [3] 0.073 | [4] 0.086 | [5] 0.046 | [6] -0.078 | [7] 0.04 | [8] 0.025 | [9] -0.026 | IRAK-1-4 Inhibitor I 0.035 | ibrutinib -0.013 | [10] -0.04 | ralimetinib 0.007 | [11] -0.089 | [12] -0.014 | [13] -0.007 | pinometostat 0.011 | [14] 0.004 | [15] 0.138

The results go on:

SPTB isoform 2 (UniProt P11277)
inactive: erlotinib 0.063 | [1] 0.116 | [2] -0.158 | [3] 0 | [4] 0.129 | [5] -0.269 | [6] -0.024 | [7] -0.015 | [8] -0.136 | [9] -0.22 | IRAK-1-4 Inhibitor I -0.026 | ibrutinib -0.047 | [10] -0.005 | ralimetinib 0.179 | [11] 0.038 | [12] -0.139 | [13] 0.171 | pinometostat 0.309 | [14] 0.201 | [15] -0.029

SPC25 (UniProt Q9HBM1)
inactive: erlotinib 0.037 | [1] 0.074 | [2] 0.057 | [3] -0.051 | [4] 0.069 | [5] 0.062 | [6] 0.064 | [7] -0.034 | [8] -0.022 | [9] -0.048 | IRAK-1-4 Inhibitor I -0.016 | ibrutinib -0.036 | [10] 0.055 | ralimetinib 0.058 | [11] -0.128 | [12] -0.183 | [13] -0.006 | pinometostat -0.006 | [14] -0.04 | [15] -0.085

SSNA1 (UniProt O43805)
inactive: erlotinib -0.008 | [1] 0.048 | [2] 0.047 | [3] 0.055 | [4] 0.089 | [5] 0.048 | [6] 0.02 | [7] -0.041 | [8] -0.01 | [9] -0.002 | IRAK-1-4 Inhibitor I -0.001 | ibrutinib 0.008 | [10] 0.016 | ralimetinib -0.021 | [11] -0.034 | [12] 0.023 | [13] -0.036 | pinometostat -0.156 | [14] 0.001 | [15] 0.01

SRSF5 (UniProt Q13243)
inactive: erlotinib -0.097 | [1] 0.012 | [2] -0.479 | [3] 0.096 | [4] -0.402 | [5] -0.028 | [6] -0.142 | [7] 0.046 | [8] -0.135 | [9] -0.146 | IRAK-1-4 Inhibitor I -0.171 | ibrutinib 0.039 | [10] -0.013 | ralimetinib 0.112 | [11] 0.091 | [12] -0.024 | [13] 0.122 | pinometostat 0.289 | [14] 0.032 | [15] -0.457

SPATA5L1 (UniProt Q9BVQ7)
inactive: erlotinib 0.021 | [1] -0.054 | [2] -0.002 | [3] 0.03 | [4] 0.047 | [5] 0.005 | [6] 0.004 | [7] -0.029 | [8] -0.024 | [9] 0.052 | IRAK-1-4 Inhibitor I 0.021 | ibrutinib 0.04 | [10] -0.012 | ralimetinib 0.004 | [11] 0.017 | [12] 0.072 | [13] 0.016 | pinometostat -0.015 | [14] -0.006 | [15] 0.14

STAM (UniProt Q92783)
inactive: erlotinib -0.054 | [1] -0.059 | [2] 0.11 | [3] 0.028 | [4] 0.051 | [5] 0.082 | [6] 0.183 | [7] -0.077 | [8] -0.003 | [9] 0.05 | IRAK-1-4 Inhibitor I -0.017 | ibrutinib -0.082 | [10] 0.064 | ralimetinib 0.129 | [11] 0.042 | [12] -0.042 | [13] -0.066 | pinometostat -0.054 | [14] -0.017 | [15] -0.051

SPTBN2 (UniProt O15020)
inactive: erlotinib 0.049 | [1] 0.14 | [2] -0.007 | [3] -0.065 | [4] 0.041 | [5] -0.026 | [6] 0.033 | [7] 0.067 | [8] -0.029 | [9] -0.12 | IRAK-1-4 Inhibitor I -0.052 | ibrutinib 0 | [10] -0.032 | ralimetinib 0.231 | [11] 0.046 | [12] -0.06 | [13] 0.07 | pinometostat 0.043 | [14] -0.069 | [15] -0.005
